Measured values taken from article PMC7862700.
The list shows a part of the results, in another mix than the full data. For part of these data: At the low end of the ranking the order means little. The list shows a part of the results. For part of these data: The source does not settle which construct or isoform was used.

Protein sequences, listed by entry. Tags and fused reporters are not part of them. Lines headed by an entry give the natural chain unless they say otherwise; changes in a name come on top.
UniProt Q00613: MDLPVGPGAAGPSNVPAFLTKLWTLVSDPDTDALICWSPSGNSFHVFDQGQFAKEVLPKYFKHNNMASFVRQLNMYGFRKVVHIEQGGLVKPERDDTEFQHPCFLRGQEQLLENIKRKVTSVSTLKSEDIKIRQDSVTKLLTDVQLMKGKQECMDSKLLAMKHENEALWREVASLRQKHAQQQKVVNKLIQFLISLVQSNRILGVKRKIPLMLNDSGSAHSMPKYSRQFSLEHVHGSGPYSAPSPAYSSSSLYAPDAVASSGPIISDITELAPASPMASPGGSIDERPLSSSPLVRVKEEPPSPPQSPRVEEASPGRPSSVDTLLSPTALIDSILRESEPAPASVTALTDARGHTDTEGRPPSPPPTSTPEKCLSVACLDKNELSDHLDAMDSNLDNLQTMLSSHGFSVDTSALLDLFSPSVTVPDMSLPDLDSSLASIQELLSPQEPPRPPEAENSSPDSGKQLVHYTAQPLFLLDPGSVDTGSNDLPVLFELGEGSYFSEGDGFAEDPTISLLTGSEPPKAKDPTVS

Key:
HSF1 = HSF1 (UniProt Q00613); assay: DAPPL (digital affinity profiling via proximity ligation, sequencing); settings: 10 mM Tris-HCl pH 7.5, 50 mM NaCl, 1 mM DTT, 4% glycerol, room temperature, 30 min; GST-TFs on glutathione beads, 16-mer random dsDNA library, 0.1% …; high values mean tight binding; double strand, one strand shown; scale: fold enrichment (6-mer frequency, TF over GST control)
ELF2 = molecular target: T1, ELF2 (UniProt Q15723); assay: as above; settings: 10 mM Tris-HCl pH 7.5, 50 mM NaCl, 1 mM DTT, 4% glycerol, room temperature, 30 min; GST-TFs on glutathione beads, 16-mer random dsDNA library, 0.1% …; high values mean tight binding; double strand, one strand shown; scale: fold enrichment (6-mer frequency, TF over GST control)
T1 sequence: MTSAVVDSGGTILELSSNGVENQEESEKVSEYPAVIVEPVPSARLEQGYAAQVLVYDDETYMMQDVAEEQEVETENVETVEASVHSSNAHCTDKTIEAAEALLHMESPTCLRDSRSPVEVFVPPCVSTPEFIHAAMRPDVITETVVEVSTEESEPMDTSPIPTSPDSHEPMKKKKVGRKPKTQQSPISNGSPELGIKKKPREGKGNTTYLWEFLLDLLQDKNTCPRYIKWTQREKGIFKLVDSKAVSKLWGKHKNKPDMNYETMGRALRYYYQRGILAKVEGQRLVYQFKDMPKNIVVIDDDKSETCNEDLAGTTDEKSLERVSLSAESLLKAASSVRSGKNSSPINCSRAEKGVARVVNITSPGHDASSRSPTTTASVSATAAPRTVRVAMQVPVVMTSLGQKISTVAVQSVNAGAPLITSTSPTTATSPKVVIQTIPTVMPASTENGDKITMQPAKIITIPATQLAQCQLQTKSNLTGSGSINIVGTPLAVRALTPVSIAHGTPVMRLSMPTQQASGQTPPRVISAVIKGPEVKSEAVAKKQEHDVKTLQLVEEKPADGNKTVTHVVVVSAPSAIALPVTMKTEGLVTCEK

Q: With ACCAGT as the sequence, how does the binding signal (HSF1) read?
A: 0.456

Q: And the binding signal (ELF2)?
A: 0.438

Q: With AGCCGC as the sequence, how does the binding signal (HSF1) read?
A: 0.803

Q: What about the binding signal (ELF2) of the same sequence?
A: 0.87

Q: How did the binding signal (HSF1) turn out when GGGTTG was run?
A: 0.664

Q: What about the binding signal (ELF2) of the same sequence?
A: 0.825

Q: With GCGGCG as the sequence, how does the binding signal (HSF1) read?
A: 0.607

Q: And the binding signal (ELF2)?
A: 0.721

Q: What does the source list for GGAGAA?
A: binding signal (HSF1): 0.475; binding signal (ELF2): 0.312

Q: With ACGCAG as the sequence, how does the binding signal (HSF1) read?
A: 0.687

Q: What about the binding signal (ELF2) of the same sequence?
A: 0.774
